Source: patent US20110230367A1 (SNU R&DB FOUNDATION, priority 2009, published 2011)

Experiment: general procedure: peptide synthesis; link amide MBHA resin (0.64 mmol/g)
Conditions: whole synthesis, scale 32 μmol

In the case of Ac-LKKLLKLLKKLLKLAG, the isolated mass is reported as 4.8 mg and the isolated yield is reported as “yield 8%”.
